# Earlier results in PMC6226116 (Clinical and Translational Science, 2018).
# Settings: with cyclosporine; cited from earlier work
compound,measurement,value
CC(C)c1c(C(=O)Nc2ccccc2)c(-c2ccccc2)c(-c2ccc(F)cc2)n1CC[C@@H](O)C[C@@H](O)CC(=O)O [atorvastatin],increase in systemic exposure to atorvastatin and its metabolites,15 fold
